Test [1] addresses T1, GST-Kif7-CC E501A/E502A (human) (UniProt Q2M1P5).
T1 sequence: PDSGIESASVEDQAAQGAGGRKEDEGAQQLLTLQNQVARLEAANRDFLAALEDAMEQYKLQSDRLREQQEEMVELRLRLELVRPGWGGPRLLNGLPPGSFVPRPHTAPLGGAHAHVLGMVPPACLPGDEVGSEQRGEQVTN
In words: BLI. (In general: BLI is a label-free optical method that tracks binding on a fibre tip over time.)

Test [2] concerns the target T2, GST-Kif7-CC E502A/D505A (human) (UniProt Q2M1P5).
T2 sequence: T1 sequence with A42E, D46A
The test is described as follows: BLI.

The target in test [3] is T3, GST-Kif7-CC E502A (human) (UniProt Q2M1P5).
T3 sequence: T1 sequence with A42E
The test is described as follows: BLI.

For the next test, the target named is T4, Gli2-ZF-GFP (human, UniProt P10070 418-604).
T4 sequence (looked up): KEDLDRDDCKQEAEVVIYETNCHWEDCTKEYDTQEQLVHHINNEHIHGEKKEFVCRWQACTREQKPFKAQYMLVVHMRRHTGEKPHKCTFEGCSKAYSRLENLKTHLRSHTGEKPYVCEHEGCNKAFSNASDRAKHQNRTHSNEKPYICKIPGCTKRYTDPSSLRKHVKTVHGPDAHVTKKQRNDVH
The test is described as follows: single molecule fluorescence intensity and photobleaching analysis.

The target of test [4] is T5, Kif7-CC S1 (E500A/E501A/E502A/D505A) mutant (human) (UniProt Q2M1P5).
T5 sequence: T1 sequence with E41A, D46A
In words: co-IP.

Test [5] addresses T6, Kif7-CC S2 (E511A/E515A) mutant (human) (UniProt Q2M1P5).
T6 sequence: T1 sequence with A42E, A43E, E52A, E56A
The test is described as follows: co-IP.

For test [6], the target named is T7, FLAG-Kif7(460-600aa), first coiled-coil dimerization domain of Kif7 (human) (UniProt Q2M1P5).
T7 sequence: T1 sequence with A42E, A43E
The test is described as follows: co-IP.

The target in test [7] is T8, Kif7-MM, monomeric Kif7 motor domain (1-386aa) (human), Q2M1P5.
T8 chain: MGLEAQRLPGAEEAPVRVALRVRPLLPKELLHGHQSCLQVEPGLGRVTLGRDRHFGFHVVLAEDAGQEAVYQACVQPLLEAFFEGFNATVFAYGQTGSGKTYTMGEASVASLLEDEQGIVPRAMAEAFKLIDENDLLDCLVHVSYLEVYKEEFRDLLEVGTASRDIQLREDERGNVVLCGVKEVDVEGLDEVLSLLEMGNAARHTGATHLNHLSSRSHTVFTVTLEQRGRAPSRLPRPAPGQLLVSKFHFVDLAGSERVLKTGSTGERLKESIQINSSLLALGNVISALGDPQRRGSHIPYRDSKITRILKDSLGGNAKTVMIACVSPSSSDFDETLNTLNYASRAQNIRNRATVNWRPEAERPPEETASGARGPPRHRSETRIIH
The test is described as follows: BLI. As to conditions: remark: other sources report otherwise.

Where a chain is given by its changes, count along the chain named. No constants are given. Whether binding was seen depends on the method and setting. For some assays here: In cells and extracts the contact can be indirect. Some results given as binding are weak or reduced against the parent protein; the word gives no strength. For some assays here: Where a sequence is shown, tags or fusion partners need not be part of it.

For the molecule “Gli2-ZF, zinc-finger domain of Gli2 (recombinant) (from UniProt P10070 418-604) (domain or fragment)”, the binding result in test [1], in test [2] and in test [3] was “no binding” throughout.
As to “Gli2-ZF-GFP (from UniProt P10070 418-604) (domain or fragment)”, the binding result with Gli2-ZF-GFP was “no binding”.
“c-Myc-Gli2(418-594aa), DNA-binding zinc finger domain of Gli2 (from UniProt P10070 418-594) (domain or fragment)”: the values for the binding entry in test [4], in test [5] and in test [6] were “no binding”, “binds” and “binds”, respectively.

B1: Gli2-ZF, zinc-finger domain of Gli2 (recombinant), P10070 418-604 (domain or fragment)
chain: T4 sequence (looked up)
Turning to B1, the binding result in test [7] is reported as “no binding (tested: 12µM Gli2-ZF)”.
